Paper PMC7555897
No constants are given. Whether binding was seen depends on the method and setting. Binding seen in cells or lysates may run through a third protein. Some results given as binding are weak or reduced against the parent protein; the word gives no strength.

The chains behind the UniProt entries cited, without tags or fusion partners.
UniProt Q9BXW9: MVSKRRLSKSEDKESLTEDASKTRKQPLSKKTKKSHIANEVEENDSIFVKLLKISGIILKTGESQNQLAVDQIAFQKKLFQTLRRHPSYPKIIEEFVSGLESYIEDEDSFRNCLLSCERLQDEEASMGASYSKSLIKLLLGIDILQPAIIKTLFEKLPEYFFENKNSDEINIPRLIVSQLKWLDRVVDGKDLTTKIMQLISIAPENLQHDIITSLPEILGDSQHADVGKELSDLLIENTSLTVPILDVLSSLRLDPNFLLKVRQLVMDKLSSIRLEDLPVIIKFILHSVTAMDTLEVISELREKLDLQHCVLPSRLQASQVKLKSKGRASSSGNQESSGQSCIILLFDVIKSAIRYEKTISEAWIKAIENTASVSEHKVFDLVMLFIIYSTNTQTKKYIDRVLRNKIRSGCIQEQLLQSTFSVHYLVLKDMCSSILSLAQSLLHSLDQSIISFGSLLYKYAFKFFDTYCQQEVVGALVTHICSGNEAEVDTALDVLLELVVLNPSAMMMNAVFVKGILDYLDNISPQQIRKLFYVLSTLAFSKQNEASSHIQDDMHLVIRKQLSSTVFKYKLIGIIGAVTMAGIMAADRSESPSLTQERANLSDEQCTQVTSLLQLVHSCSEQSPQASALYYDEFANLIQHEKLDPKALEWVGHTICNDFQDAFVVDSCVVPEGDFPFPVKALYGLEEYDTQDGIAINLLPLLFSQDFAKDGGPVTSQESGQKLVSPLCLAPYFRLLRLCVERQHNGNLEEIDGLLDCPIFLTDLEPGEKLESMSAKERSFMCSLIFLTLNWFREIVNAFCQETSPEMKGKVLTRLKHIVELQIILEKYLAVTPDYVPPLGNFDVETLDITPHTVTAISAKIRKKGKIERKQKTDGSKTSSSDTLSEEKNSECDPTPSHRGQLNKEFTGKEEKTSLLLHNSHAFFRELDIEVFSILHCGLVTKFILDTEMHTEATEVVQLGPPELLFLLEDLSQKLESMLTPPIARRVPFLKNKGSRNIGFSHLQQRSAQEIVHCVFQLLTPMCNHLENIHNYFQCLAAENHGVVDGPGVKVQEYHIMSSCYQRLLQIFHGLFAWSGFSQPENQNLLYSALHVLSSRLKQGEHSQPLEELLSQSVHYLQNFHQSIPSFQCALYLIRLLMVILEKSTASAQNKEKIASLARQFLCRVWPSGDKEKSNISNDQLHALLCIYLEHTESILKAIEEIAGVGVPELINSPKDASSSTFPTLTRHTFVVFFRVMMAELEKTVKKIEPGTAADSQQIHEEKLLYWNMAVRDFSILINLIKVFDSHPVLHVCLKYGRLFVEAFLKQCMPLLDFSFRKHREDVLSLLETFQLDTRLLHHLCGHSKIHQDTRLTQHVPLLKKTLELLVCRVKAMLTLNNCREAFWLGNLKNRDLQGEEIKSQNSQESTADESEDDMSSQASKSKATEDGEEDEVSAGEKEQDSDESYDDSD
UniProt Q9NVI1: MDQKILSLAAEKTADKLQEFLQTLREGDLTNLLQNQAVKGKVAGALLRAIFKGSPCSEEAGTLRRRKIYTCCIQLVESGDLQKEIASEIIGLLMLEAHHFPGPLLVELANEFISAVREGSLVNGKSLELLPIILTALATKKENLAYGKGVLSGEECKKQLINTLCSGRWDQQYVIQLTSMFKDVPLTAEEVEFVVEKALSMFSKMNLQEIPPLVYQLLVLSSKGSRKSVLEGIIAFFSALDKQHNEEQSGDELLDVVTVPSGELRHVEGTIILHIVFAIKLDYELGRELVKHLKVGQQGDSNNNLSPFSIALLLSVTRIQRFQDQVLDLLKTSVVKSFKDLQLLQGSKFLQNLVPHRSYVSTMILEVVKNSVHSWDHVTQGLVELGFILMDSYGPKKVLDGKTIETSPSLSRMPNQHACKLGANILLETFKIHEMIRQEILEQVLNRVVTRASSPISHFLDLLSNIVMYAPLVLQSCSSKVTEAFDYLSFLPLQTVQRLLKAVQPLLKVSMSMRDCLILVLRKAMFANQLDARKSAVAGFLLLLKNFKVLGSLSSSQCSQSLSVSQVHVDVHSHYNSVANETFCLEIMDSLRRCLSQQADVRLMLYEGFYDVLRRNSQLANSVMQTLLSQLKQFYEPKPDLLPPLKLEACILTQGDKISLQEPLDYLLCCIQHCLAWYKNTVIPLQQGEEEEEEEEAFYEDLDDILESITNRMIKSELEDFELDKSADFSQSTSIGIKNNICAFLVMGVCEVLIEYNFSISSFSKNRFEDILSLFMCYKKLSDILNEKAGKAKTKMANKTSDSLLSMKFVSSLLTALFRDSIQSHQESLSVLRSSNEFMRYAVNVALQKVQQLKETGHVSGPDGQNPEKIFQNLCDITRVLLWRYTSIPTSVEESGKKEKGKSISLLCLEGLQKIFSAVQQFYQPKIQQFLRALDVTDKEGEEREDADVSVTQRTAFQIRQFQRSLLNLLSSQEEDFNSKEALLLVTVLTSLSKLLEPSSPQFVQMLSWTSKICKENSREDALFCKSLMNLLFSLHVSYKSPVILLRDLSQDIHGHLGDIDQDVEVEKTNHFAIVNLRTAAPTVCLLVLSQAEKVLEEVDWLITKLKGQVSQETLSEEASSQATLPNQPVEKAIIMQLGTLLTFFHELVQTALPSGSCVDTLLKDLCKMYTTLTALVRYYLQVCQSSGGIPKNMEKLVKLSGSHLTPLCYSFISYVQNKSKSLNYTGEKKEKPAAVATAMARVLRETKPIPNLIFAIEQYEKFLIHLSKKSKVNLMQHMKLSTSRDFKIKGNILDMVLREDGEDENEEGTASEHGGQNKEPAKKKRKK

Columns and labels:
[1] = target: FLAG-p62 (p62/SQSTM1), expressed in 293 cells (UniProt Q13501); assay: co-IP; 293 cells co-transfected with MYC-tagged FANCD2 and FANCI and FLAG-p62 for 48 h; IP with FLAG beads, immunoblot
[2] = target: FLAG-p62 (p62/SQSTM1), expressed in H1299 cells (UniProt Q13501); assay: co-IP; H1299 cells transfected with siRNA oligos (control or RPS27L), then mock vector or FLAG-p62 for 48 h, treated with CQ (50 µM) for 24 h; IP with FLAG beads, immunoblot of endogenous proteins

Substance: MYC-tagged FANCD2 (from UniProt Q9BXW9 1-1451)
- binding [1]: binds

Substance: FANCD2, endogenous in H1299 cells (from UniProt Q9BXW9 1-1451)
- binding [2]: binds

Substance: FANCI, endogenous in H1299 cells (from UniProt Q9NVI1 1-1328)
- binding [2]: binds

Substance: MYC-tagged FANCI (from UniProt Q9NVI1 1-1328)
- binding [1]: binds
